# Measurements: patent US20110293720A1, “PROGESTIN-CONTAINING DRUG DELIVERY SYSTEM” (BAYER SCHERING PHARMA AKTIENGESELLSCHAFT, priority 2008, published 2011)
# At least one structure is not confirmed: it was looked up by name or label, or the drawing left a doubt.
# Experiment: Particle size distribution (d50/d70/d90, volume distribution, e.g. laser diffraction)
# Format: physicochemical
# Settings: micronized active ingredient before coating
# Description: When used herein, the term “d90 particle size” is intended to mean that the particle size distribution is so that at least 90% of the particles have a particle diameter of less than the specified value, calculated from the volume distribution curve under the presumption of spherical particles. In a similar way, the term “d50 particle size” is intended to mean that the particle size distribution is so that at least 50% of the particles have a particle diameter of less than the specified value, calculated from the volume distribution curve under the presumption of spherical particles.
# Therefore, it is important to note that whenever the terms “particle size”, “particle size distribution”, “particle diameter”, “d90”, “d50”, etc., are used herein it should be understood that the specific values or ranges used in connection therewith are always meant to be determined from the volume distribution curve under the presumption of spherical particles. The particle size distribution may be determined by various techniques, e.g. laser diffraction, and will be known to the person skilled in the art. […] The particle size distribution of the particles comprising the progestin and the protective agent, when incorporated in the wafer, may be determined by dissolving the film forming matrix, separation of the protected particles, and drying the protected particles. […]
compound,measurement,value
C#C[C@]1(O)CC[C@H]2[C@@H]3CCc4cc(O)ccc4[C@H]3CC[C@@]21C [ethinylestradiol],d50,1.5 μm
same,d90,4.0 μm
